# Reference: the supplement of paper PMC12542422
# Counter-ions that a name gives are not always drawn. ± gives the standard deviation of the averaged measurements. This is one part of the list. These are raw signals, not scaled to a control.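 HeLa cells imaged for ribosome-assembly readouts (ENP1 staining with or without export block, or inducible tagged ribosomal protein reporters); machine learning classified each cell's signal location against solvent (DMSO) controls. Hits exceeded the DMSO false-positive mean by five standard deviations, then were visually confirmed; three biological replicates.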
# Tested on: HeLa RPS2-YFP reporter
# Experiment: fraction of reporter-positive cells with nuclear (nucleolar or nucleolar/nucleoplasmic) RPS2-YFP (MainHitrate); higher = more cells with nucleolar/nuclear readout signal (for ENP1 -LMB: less RNAPI inhibition; for +LMB ENP1 and RP reporters: stronger nuclear/nucleolar retention, i.e. ribosome biogenesis defect)
# Details: concentration: 1 µM; treatment time: 6 h
row,Compound,fraction of reporter-positive cells with nuclear
1,CCN(CC)CCNC(=O)c1c(C)[nH]c(/C=C2\C(=O)Nc3ccc(F)cc32)c1C [Sunitinib Malate (Sutent)],0.0872 ± 0.031
2,Oc1c(Cl)cc(Cl)c2cccnc12 [Chloroxine],0.12 ± 0.08
3,N#Cc1ccc(C(c2ccc(C#N)cc2)n2cncn2)cc1 [Letrozole],0.121 ± 0.097
4,Cc1ccc(N(CC2=NCCN2)c2cccc(O)c2)cc1 [Phentolamine mesilate],0.129 ± 0.057
5,CC(=O)[C@H]1CC[C@H]2[C@@H]3CC=C4C[C@@H](O)CC[C@]4(C)[C@H]3CC[C@]12C [Pregnenolone],0.122 ± 0.072
6,Nc1ccc(S(N)(=O)=O)cc1 [Sulfanilamide],0.0399 ± 0.021
7,CC[C@]1(O)C[C@H]2CN(CCc3c([nH]c4ccccc34)[C@@](C(=O)OC)(c3cc4c(cc3OC)N(C=O)[C@H]3[C@@](O)(C(=O)OC)[C@H](OC(C)=O)[C@]5(CC)C=CCN6CC[C@]43[C@@H]65)C2)C1 [Vincristine],0.265 ± 0.2
8,OCC(CO)N[C@H]1C[C@](O)(CO)[C@@H](O)[C@H](O)[C@H]1O [Voglibose],0.122 ± 0.1
9,O=C(c1ccccc1)c1ccc2n1CCC2C(=O)O (stereo not given) [Ketorolac (Toradol)],0.131 ± 0.099
10,CCC(=O)OCC(=O)[C@@]1(OC(=O)CC)[C@@H](C)C[C@H]2[C@@H]3CCC4=CC(=O)C=C[C@]4(C)[C@@]3(F)[C@@H](O)C[C@@]21C [Betamethasone Dipropionate (Diprolene)],0.15 ± 0.069
11,CC[C@H]1OC(=O)C[C@@H](O)[C@H](C)[C@@H](O[C@@H]2O[C@H](C)[C@@H](O[C@H]3C[C@@](C)(O)[C@@H](O)[C@H](C)O3)[C@H](N(C)C)[C@H]2O)[C@@H](CC=O)C[C@@H](C)C(=O)/C=C/C(C)=C/[C@@H]1CO[C@@H]1O[C@H](C)[C@@H](O)[C@@H](OC)[C@H]1OC [Tylosin tartrate],0.129 ± 0.072
12,CN(C)[C@@H]1C(O)=C(C(=O)NCN2CCCC2)C(=O)[C@@]2(O)C(O)=C3C(=O)c4c(O)cccc4[C@@](C)(O)[C@H]3C[C@@H]12 [Rolitetracycline],0.192 ± 0.21
13,Cc1ncc([N+](=O)[O-])n1CC(O)CCl (stereo not given) [Ornidazole],0.104 ± 0.083
14,O=c1[nH]c(=O)n([C@H]2C[C@H](O)[C@@H](CO)O2)cc1I [Idoxuridine],0.124 ± 0.06
15,CC[C@H](C)C(=O)O[C@H]1C[C@H](O)C=C2C=C[C@H](C)[C@H](CC[C@@H](O)C[C@@H](O)CC(=O)O)[C@H]21 [Pravastatin sodium],0.124 ± 0.089
16,C#CCC(Cc1cnc2nc(N)nc(N)c2n1)c1ccc(C(=O)N[C@@H](CCC(=O)O)C(=O)O)cc1 (stereo not given in full) [Pralatrexate (Folotyn)],0.106 ± 0.09
17,CN(C(=O)CN(CCO)CC(=O)N(C)C(C)(C)Cc1ccccc1)C(C)(C)Cc1ccccc1 [Oxethazaine],0.18 ± 0.16
18,Nc1ccn([C@H]2CC[C@@H](CO)O2)c(=O)n1 [Zalcitabine],0.126 ± 0.091
19,Cc1[nH]c(=O)c(C#N)cc1-c1ccncc1 [Milrinone (Primacor)],0.117 ± 0.12
20,C[C@]12CCC3=C4CCC(=O)C=C4CC[C@H]3[C@@H]1CC[C@@]2(O)CC#N [Dienogest],0.117 ± 0.075
21,CN(C)CCCOc1nn(Cc2ccccc2)c2ccccc12 [Benzydamine Hydrochloride],0.105 ± 0.11
22,"CS(=O)(=O)OCCCCOS(C)(=O)=O [Busulfan (Myleran, Busulfex)]",0.108 ± 0.077
23,CS(=O)(=O)c1ccc([C@@H](O)[C@@H](CO)NC(=O)C(Cl)Cl)cc1 [Thiamphenicol (Thiophenicol)],0.0924 ± 0.1
24,CCC[C@@H]1C[C@@H](C(=O)N[C@@H]([C@H]2O[C@H](SC)[C@H](OP(=O)(O)O)[C@@H](O)[C@H]2O)[C@H](C)Cl)N(C)C1 [Clindamycin phosphate],0.112 ± 0.041
25,NC(=O)c1cccnc1 [Nicotinamide (Niacinamide)],0.131 ± 0.068
26,NC[C@H]1O[C@H](O[C@H]2[C@H](O)[C@@H](O[C@H]3O[C@H](CO)[C@@H](O)[C@H](N)[C@H]3O)[C@H](N)C[C@@H]2N)[C@H](N)C[C@@H]1O [Tobramycin],0.103 ± 0.059
27,COc1ccccc1OCC(O)CN1CCN(CC(=O)Nc2c(C)cccc2C)CC1 (stereo not given) [Ranolazine (Ranexa)],0.101 ± 0.094
28,CC(COc1ccccc1)N(CCCl)Cc1ccccc1 (stereo not given) [Phenoxybenzamine HCl],0.118 ± 0.04
29,CN1[C@@H]2CC[C@H]1C[C@@H](OC(c1ccccc1)c1ccccc1)C2 [Benztropine mesylate],0.136 ± 0.12
30,C#C[C@]1(OC(C)=O)CC[C@H]2[C@@H]3CCC4=C[C@@H](OC(C)=O)CC[C@@H]4[C@H]3CC[C@@]21C [Ethynodiol diacetate],0.118 ± 0.093

# Shown with tabs: two of the compounds above
row	Compound	fraction of reporter-positive cells with nuclear
17	CN(C(=O)CN(CCO)CC(=O)N(C)C(C)(C)Cc1ccccc1)C(C)(C)Cc1ccccc1 [Oxethazaine]	0.18 ± 0.16
18	Nc1ccn([C@H]2CC[C@@H](CO)O2)c(=O)n1 [Zalcitabine]	0.126 ± 0.091
